Results reported in paper PMC4202153.
These are yes or no findings as the source states them, for the method shown. Binding seen in cells or lysates may run through a third protein. Some binding calls cover weakened binding; strength is not graded here. Tags and fused reporters may be left off the sequences shown.

By UniProt entry, the sequences of proteins in these tests, tags left out.
UniProt Q13547: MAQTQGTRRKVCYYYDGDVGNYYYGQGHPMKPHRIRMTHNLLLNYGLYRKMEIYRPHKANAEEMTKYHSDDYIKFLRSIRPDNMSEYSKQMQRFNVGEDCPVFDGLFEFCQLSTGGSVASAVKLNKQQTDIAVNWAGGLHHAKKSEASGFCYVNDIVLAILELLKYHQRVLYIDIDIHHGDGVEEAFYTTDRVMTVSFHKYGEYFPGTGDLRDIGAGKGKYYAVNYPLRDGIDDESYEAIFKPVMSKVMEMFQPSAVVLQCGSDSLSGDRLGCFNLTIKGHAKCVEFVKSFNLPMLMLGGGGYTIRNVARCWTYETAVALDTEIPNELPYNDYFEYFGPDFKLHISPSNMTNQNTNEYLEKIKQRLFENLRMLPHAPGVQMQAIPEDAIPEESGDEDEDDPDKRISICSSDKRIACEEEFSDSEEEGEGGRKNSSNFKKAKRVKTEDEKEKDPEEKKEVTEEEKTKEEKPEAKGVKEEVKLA
UniProt Q92769: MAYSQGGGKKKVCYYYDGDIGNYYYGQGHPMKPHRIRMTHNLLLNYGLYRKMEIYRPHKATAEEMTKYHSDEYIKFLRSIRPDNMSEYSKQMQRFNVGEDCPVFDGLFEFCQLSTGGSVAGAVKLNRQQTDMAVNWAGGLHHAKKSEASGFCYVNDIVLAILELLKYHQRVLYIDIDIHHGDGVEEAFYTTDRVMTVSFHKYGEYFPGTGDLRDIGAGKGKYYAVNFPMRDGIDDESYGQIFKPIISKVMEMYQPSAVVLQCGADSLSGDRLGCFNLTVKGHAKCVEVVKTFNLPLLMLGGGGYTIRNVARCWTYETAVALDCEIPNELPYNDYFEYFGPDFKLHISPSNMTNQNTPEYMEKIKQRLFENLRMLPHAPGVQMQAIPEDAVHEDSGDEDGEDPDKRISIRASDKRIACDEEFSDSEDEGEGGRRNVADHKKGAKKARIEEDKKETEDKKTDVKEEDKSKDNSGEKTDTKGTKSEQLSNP

Molecular target: T1, TRPS1 (human (endogenous in the paper's human breast cell lines; line not named for this experiment)) (UniProt Q9UHF7)
T1 sequence: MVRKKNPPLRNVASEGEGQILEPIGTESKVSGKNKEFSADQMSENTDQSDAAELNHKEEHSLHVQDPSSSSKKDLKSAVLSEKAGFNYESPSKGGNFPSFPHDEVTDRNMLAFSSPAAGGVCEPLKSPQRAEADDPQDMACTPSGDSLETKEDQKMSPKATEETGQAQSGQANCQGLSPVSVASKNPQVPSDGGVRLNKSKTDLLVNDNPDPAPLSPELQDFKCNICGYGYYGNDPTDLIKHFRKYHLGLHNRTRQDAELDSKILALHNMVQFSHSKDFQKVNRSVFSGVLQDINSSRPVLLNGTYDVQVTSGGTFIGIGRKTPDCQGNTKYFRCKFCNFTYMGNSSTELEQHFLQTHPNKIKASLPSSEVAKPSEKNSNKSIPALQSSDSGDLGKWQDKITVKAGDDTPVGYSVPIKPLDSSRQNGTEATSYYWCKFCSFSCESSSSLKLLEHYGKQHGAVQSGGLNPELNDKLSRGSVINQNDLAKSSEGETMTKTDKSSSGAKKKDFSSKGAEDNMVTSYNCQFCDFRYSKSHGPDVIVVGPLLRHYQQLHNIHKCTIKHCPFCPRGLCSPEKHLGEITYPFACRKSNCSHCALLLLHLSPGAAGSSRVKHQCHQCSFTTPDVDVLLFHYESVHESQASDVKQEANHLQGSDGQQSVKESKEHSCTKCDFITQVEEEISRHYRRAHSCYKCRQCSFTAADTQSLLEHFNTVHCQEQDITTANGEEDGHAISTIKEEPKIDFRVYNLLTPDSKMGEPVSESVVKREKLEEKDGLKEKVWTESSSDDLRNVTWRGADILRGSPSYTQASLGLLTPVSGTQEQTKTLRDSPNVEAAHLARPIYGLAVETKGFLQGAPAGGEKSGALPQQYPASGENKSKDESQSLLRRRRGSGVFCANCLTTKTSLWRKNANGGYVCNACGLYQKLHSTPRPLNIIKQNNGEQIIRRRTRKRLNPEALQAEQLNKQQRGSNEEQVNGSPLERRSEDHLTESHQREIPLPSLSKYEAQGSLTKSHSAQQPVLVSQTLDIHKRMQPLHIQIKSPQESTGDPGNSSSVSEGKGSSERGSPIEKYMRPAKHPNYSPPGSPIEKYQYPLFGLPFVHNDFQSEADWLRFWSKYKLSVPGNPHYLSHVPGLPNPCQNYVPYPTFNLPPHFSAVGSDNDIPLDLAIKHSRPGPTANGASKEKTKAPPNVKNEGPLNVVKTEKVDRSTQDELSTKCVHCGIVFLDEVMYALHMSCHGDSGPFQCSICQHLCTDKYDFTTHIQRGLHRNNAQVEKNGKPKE
Test: co-IP; immunoprecipitation with anti-TRPS1 antibody (R&D Systems) against control polyclonal IgG on Dynabeads Protein G; western blot of the precipitated proteins

Substance	binding
HDAC1 (from UniProt Q13547 1-482) (enzyme)	binds
HDAC2 (from UniProt Q92769 1-488) (enzyme)	binds
